# Data: PubChem BioAssay AID2685 (National Center for Advancing Translational Sciences (NCATS), 2010)
# This is one part of the list. Shown are side measurements of this screen, not its main read-out; they come without a call. The list favours compounds with an active or inconclusive main result. The note in brackets gives the kind of curve behind each potency; many fits are weak.
# Assay: qHTS Assay for Lipid Storage Modulators in Drosophila S3 Cells;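 for cell number change: cells counted by Cell Tracker Red CMTPX staining in the red channel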
# Settings: BODIPY lipid droplet fluorescence, 18-24 h; for cell number change: measured here: cell count max response, cells fed with added oleic acid
# In short: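 Drosophila S3 cells loaded with oleic acid (400 uM, as added) and compounds at several concentrations; lipid droplets imaged by 488-nm laser-scanning cytometry, 500–530 nm intensity and object ratio to cell channel. Percent activity normalized to 20 uM Triacsin C.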
# [1] = measured here: cell number channel AC50, cells fed with added oleic acid
# [2] = measured here: lipid fluorescence (Fed channel) AC50, cells fed with added oleic acid
SMILES,cell number change [%],AC50 [1],AC50 [2]
CCCn1nnnc1NC(=O)COc1ccc(CC)cc1,-33.3,"4.11 µM [falling, full curve, poor fit]",–
COc1ccc(-c2nc3ccc(C)cn3c2NCc2ccccc2)cc1SC1CCCCC1,-11.9,"1.64 µM [falling, partial curve]","4.11 µM [falling, partial curve]"
C=CCn1cc(/C=N\NC(=O)c2cc3c(ccc4ccccc43)o2)c2ccccc21,-10.6,–,–
O=C(OCc1ccccc1)c1ccc2c(c1)-c1ccccc1C2=O,58.3,"18.4 µM [rising, single point]",–
O=C(NN=C1c2ccccc2-c2ccccc21)c1cccc(Br)c1,-40.4,"5.8 µM [falling, full curve]","6.51 µM [falling, partial curve]"
O=C1C=CC(=O)N1c1ccc(OC(F)F)cc1,-74.8,"25.9 µM [falling, partial curve]","29.1 µM [falling, partial curve, poor fit]"
CCN(CC(=O)NCc1ccc(Cl)cc1)C(=O)COc1cccc(Cl)c1,-8.26,–,"9.2 µM [falling, partial curve, poor fit]"
CC(=O)Nc1cccc(NC(=O)Nc2ccc(C)c(Cl)c2)c1,-42.8,–,–
COc1cc(CN2CCC(n3nccc3NC(=O)CCCc3ccccc3)CC2)ccc1F,0.917,–,"0.13 µM [rising, full curve, poor fit]"
Nc1nc(NC2CCCCC2)nc(NCCO)c1[N+](=O)[O-],6.94,–,–
CCOC(=O)C1CCCN(S(=O)(=O)c2ccc3c(c2)N(C(C)=O)CCO3)C1 (centres undefined),–,"1.64 µM [falling, partial curve]",–
CC(C)(C)c1cc(/C=C2\NC(=O)NC2=O)cc(C(C)(C)C)c1O,-30.3,"18.4 µM [falling, single point]","8.2 µM [falling, partial curve]"
CC(NC(=O)c1ccccc1Cl)C(=O)NCc1cccs1 (centres undefined),–,–,"0.13 µM [falling, full curve, poor fit]"
O=C(Cc1coc2ccc3ccccc3c12)N1CCc2ccccc21,5.44,–,–
O=C(Nc1ccncc1)C1COc2ccccc2O1 (centres undefined),-16.7,–,–
CCCCNC(=O)NNC(=O)C1CC1(c1ccccc1)c1ccccc1 (centres undefined),-4.23,–,"29.1 µM [falling, single point]"
O=C(O)CC1=C(Nc2ccccc2)C(=O)N(c2ccccc2)C1c1ccc(Br)cc1 (centres undefined),-15.4,–,"32.6 µM [falling, single point]"
Cc1cccc(C)c1OCc1cc(C(=O)N(C)Cc2cc(C3CC3)n[nH]2)no1,4.74,–,"2.06 µM [falling, full curve, poor fit]"
O=C(c1ccco1)N1CCN(c2ccnc3cc(Cl)ccc23)CC1,-12.4,–,"0.58 µM [falling, full curve]"
Cc1cc(C)cc(OCC(O)CN2CC(C)OC(C)C2)c1 (centres undefined),5.62,–,"0.731 µM [rising, single point]"
c1ccc(-c2noc(C34CC5CC(CC(C5)C3)C4)n2)nc1,-69,"29.1 µM [falling, single point]",–

SMILES,cell number change [%],AC50 [1],AC50 [2]
COc1ccc(C(=O)NCCc2nnc(SCC(=O)Nc3ccc(Br)cc3)n2C)cc1,110,"29.1 µM [rising, single point]","29.1 µM [rising, single point]"
N#CC(C#N)=C1C=CC=CN1/C(=C\c1ccco1)C(=O)c1ccc(Br)cc1,-44.8,"5.17 µM [falling, full curve]","5.17 µM [falling, full curve]"
Cc1ccc(/C=N/NC(=O)CSc2nc3ccccc3s2)o1,18.2,–,"0.00517 µM [falling, full curve, poor fit]"
O=C(Nc1ccc(N2CCOCC2)cc1)C1=NN(c2ccccc2)C(=O)CC1,-22.9,"0.00651 µM [falling, full curve, poor fit]",–
CCCCN1CC(=O)N2[C@H]3c4cc(C)ccc4OC[C@@H]3[C@H](C(=O)OCC)[C@]2(C)C1=O,-26.4,–,"0.164 µM [falling, full curve]"
Cc1ccccc1-n1nnc2c(=O)oc3ccccc3c21,-119,"23.1 µM [falling, partial curve]","25.9 µM [falling, partial curve]"
O=C(CCCn1nnc2ccccc2c1=O)N[C@H](C(=O)O)c1ccccc1,-59.4,"29.1 µM [falling, single point]","29.1 µM [falling, single point]"
COC(=O)C1=C(C)N(Cc2ccccc2)C(=NCCc2c[nH]c3ccccc23)N[C@H]1c1ccccc1,-1.16,–,"7.31 µM [falling, partial curve]"
CCOC(=O)C1(Cc2cccc(OC)c2)CCN(CC(O)CO)CC1 (centres undefined),-34.3,–,"10.3 µM [falling, partial curve, poor fit]"
O=[N+]([O-])c1ccccc1/C=C/CN1CCCC(CO)C1 (centres undefined),11.9,–,"0.731 µM [rising, single point]"
N#C/C(=C\c1cccc(Cl)c1)C(=O)c1ccccc1,-5.02,"2.91 µM [falling, single point]",–
CCOC(=O)CC(=O)Nc1ccc(C(=O)OCC)cc1,–,"0.184 µM [falling, full curve, poor fit]","0.411 µM [falling, partial curve, poor fit]"
Cc1c(NS(=O)(=O)c2ccc([N+](=O)[O-])cc2)c(=O)n(-c2ccccc2)n1C,-0.824,–,"29.1 µM [rising, single point]"
Cc1ccccc1N(C)S(=O)(=O)c1ccc2[nH]cc(C(=O)NCC3CCCO3)c(=O)c2c1 (centres undefined),–,"0.82 µM [rising, single point]",–
N#Cc1ccc(C(=O)OCC(=O)Nc2cccnc2Cl)cc1,25.4,–,"0.82 µM [rising, partial curve, poor fit]"
CCCNC(=O)c1nnsc1S(=O)c1ccc(Cl)cc1 (centres undefined),-57.7,–,–
COc1cc(C(=O)NNC(=O)COc2ccccc2Cl)ccc1OCC(=O)N1CCOCC1,13.3,–,"1.64 µM [rising, full curve, poor fit]"
CCCC(=O)N(CCN1CCOCC1)c1nc2cc(C)c(C)cc2s1,-20.1,–,"29.1 µM [falling, single point]"
COc1ccc(CN(C(=O)c2snc(C(N)=O)c2N)C(C(=O)NC2CCCC2)c2ccc(OC)c(OC)c2)cc1 (centres undefined),19.2,–,–
CCOC(=O)c1c(C)[nH]c(C)c1C(=O)CN1C(=O)NC2(CCC(C)CC2)C1=O (centres undefined),32.1,"16.4 µM [rising, single point]","29.1 µM [rising, single point]"
Cc1ccnc(NC(=O)CCCOc2ccc(Cl)cc2C)c1,17.1,–,–

# Quoted from above (15 entries):
SMILES,cell number change [%],AC50 [1],AC50 [2]
N#CC(C#N)=C1C=CC=CN1/C(=C\c1ccco1)C(=O)c1ccc(Br)cc1,-44.8,"5.17 µM [falling, full curve]","5.17 µM [falling, full curve]"
Cc1ccc(/C=N/NC(=O)CSc2nc3ccccc3s2)o1,18.2,–,"0.00517 µM [falling, full curve, poor fit]"
O=C(Nc1ccc(N2CCOCC2)cc1)C1=NN(c2ccccc2)C(=O)CC1,-22.9,"0.00651 µM [falling, full curve, poor fit]",–
CCCCN1CC(=O)N2[C@H]3c4cc(C)ccc4OC[C@@H]3[C@H](C(=O)OCC)[C@]2(C)C1=O,-26.4,–,"0.164 µM [falling, full curve]"
Cc1ccccc1-n1nnc2c(=O)oc3ccccc3c21,-119,"23.1 µM [falling, partial curve]","25.9 µM [falling, partial curve]"
O=C(CCCn1nnc2ccccc2c1=O)N[C@H](C(=O)O)c1ccccc1,-59.4,"29.1 µM [falling, single point]","29.1 µM [falling, single point]"
COC(=O)C1=C(C)N(Cc2ccccc2)C(=NCCc2c[nH]c3ccccc23)N[C@H]1c1ccccc1,-1.16,–,"7.31 µM [falling, partial curve]"
CCOC(=O)C1(Cc2cccc(OC)c2)CCN(CC(O)CO)CC1 (centres undefined),-34.3,–,"10.3 µM [falling, partial curve, poor fit]"
O=[N+]([O-])c1ccccc1/C=C/CN1CCCC(CO)C1 (centres undefined),11.9,–,"0.731 µM [rising, single point]"
N#C/C(=C\c1cccc(Cl)c1)C(=O)c1ccccc1,-5.02,"2.91 µM [falling, single point]",–
CCOC(=O)CC(=O)Nc1ccc(C(=O)OCC)cc1,–,"0.184 µM [falling, full curve, poor fit]","0.411 µM [falling, partial curve, poor fit]"
Cc1c(NS(=O)(=O)c2ccc([N+](=O)[O-])cc2)c(=O)n(-c2ccccc2)n1C,-0.824,–,"29.1 µM [rising, single point]"
Cc1ccccc1N(C)S(=O)(=O)c1ccc2[nH]cc(C(=O)NCC3CCCO3)c(=O)c2c1 (centres undefined),–,"0.82 µM [rising, single point]",–
N#Cc1ccc(C(=O)OCC(=O)Nc2cccnc2Cl)cc1,25.4,–,"0.82 µM [rising, partial curve, poor fit]"
CCCNC(=O)c1nnsc1S(=O)c1ccc(Cl)cc1 (centres undefined),-57.7,–,–

# Next part:

SMILES,cell number change [%],AC50 [1],AC50 [2]
Cc1ccc(/C=N/Nc2nncc(-c3ccccc3)n2)o1,18.9,–,–
O=C(COC(=O)c1cccc(F)c1)Nc1cccnc1Cl,42.1,"32.6 µM [rising, single point]","0.411 µM [rising, partial curve, poor fit]"
COc1ccccc1NC(=O)CN(Cc1ccco1)C(=O)c1ccc(-n2nc(C)cc2C)cc1,-17.3,–,–
COc1ccccc1-c1nc2n(n1)C(c1cccs1)C(C(=O)Nc1cccnc1)=C(C)N2 (centres undefined),–,"0.164 µM [rising, full curve]","0.206 µM [rising, partial curve, poor fit]"
c1cc2c(cnc3cscc32)s1,31.3,"16.4 µM [rising, single point]",–
Cc1c2c(nc3ccccc13)OCC2,14,–,"0.92 µM [rising, full curve, poor fit]"
Cc1ccc(NC(=O)NCC2CCN(Cc3cccc(Cl)c3)CC2)cc1Cl,-98.8,"29.1 µM [falling, single point]",–
CC(=O)ONC(=Nc1ccccc1)c1nonc1N,-17.4,–,"0.731 µM [falling, full curve]"
CC1CC(C)CN(C(=O)CSc2nc(Cc3cccs3)nc3ccccc23)C1 (centres undefined),–,–,"0.13 µM [rising, full curve, poor fit]"
CSc1ccc(/C=C(/NC(=O)c2ccco2)C(=O)N2CCCCC2)cc1,-22.1,–,–
Cc1cccc(-n2c(N)c(C(=O)NCCN3CCOCC3)c3nc4ccccc4nc32)c1,-20,–,"29.1 µM [rising, single point]"
CCCc1cc(=O)[nH]c(SCC(=O)Nc2ccc(Cl)c(S(=O)(=O)N3CCOCC3)c2)n1,-4.97,–,"9.2 µM [falling, partial curve]"
O=C(Nc1ncc([N+](=O)[O-])s1)c1cccc([N+](=O)[O-])c1,–,–,"1.3 µM [falling, full curve, poor fit]"
CC(C)(C)c1ccc(C(=O)N2CCC(C(=O)NCCC3=CCCCC3)CC2)cc1,-23.8,–,"2.91 µM [falling, partial curve, poor fit]"
O=C1CN=C(Nc2cccc(C(F)(F)F)c2)N1C1CCCC1,10.8,–,"0.058 µM [rising, full curve, poor fit]"
C=CCn1c(SCC(=O)/C(C#N)=C(\C)N)nc2sc(C)c(C)c2c1=O,9.35,–,"0.58 µM [rising, full curve, poor fit]"
CC(C)n1nccc1N(Cc1ccc(C#N)cc1)S(=O)(=O)c1ccccc1,-18.4,–,–
CCOC(=O)CC1C(=O)NCCN1S(=O)(=O)c1cccc(C(F)(F)F)c1 (centres undefined),14.6,–,–
CCc1nnc(NC(=O)c2cccc(C(=O)Nc3nnc(CC)s3)n2)s1,-21.6,–,"8.2 µM [falling, partial curve, poor fit]"
